# From the supplement of paper PMC3334620
# Over roughly 33,000 sequences, “E-score (-0.5 to 0.5)” has its median near -0.0014; the highest 2% begin near 0.25. The list shows a part of the results.
# Target: T1, Cad1 (UniProt P24813)
# T1 sequence: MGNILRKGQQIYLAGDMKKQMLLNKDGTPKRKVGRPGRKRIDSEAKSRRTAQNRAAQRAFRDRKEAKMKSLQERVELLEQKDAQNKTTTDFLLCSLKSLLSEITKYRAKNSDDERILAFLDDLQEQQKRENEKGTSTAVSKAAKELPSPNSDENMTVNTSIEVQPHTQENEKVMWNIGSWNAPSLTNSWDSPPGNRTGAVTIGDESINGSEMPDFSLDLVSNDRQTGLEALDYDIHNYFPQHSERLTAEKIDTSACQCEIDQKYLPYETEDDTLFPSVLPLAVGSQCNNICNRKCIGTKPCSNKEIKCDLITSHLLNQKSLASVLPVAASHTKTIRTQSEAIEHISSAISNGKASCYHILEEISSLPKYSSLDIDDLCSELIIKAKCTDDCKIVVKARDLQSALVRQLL
# Assay: PBM E-score (8-mer binding enrichment) (E-score (-0.5 to 0.5)); higher = stronger / more preferred TF binding
# Conditions: protein concentration: 100 nM; construct: GST-full length
# How it was run: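 The E-score, a modified Wilcoxon-Mann-Whitney statistic, was computed by the Universal PBM Analysis Suite for every ungapped eight-base word pooled with its reverse complement. Scans behind it were normalised with masliner after bound GST-tagged yeast transcription factors were detected with fluorescent anti-GST. The proteins, at about 100-200 nM, had been applied to universal all-10-mer Agilent arrays made double-stranded by primer extension.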
row,Sequence,PBM E-score
1,ACGGCAGG,-0.265
2,CTCTCCCA,-0.182
3,GTTGGAGA,-0.0985
4,CCGGATAA,0.154
5,GGGTTCAA,0.0637
6,ATTTTTCG,0.135
7,GATGGGGC,-0.122
8,ACCCGCGC,0.256
9,CGACCTAC,-0.126
10,CCAAACTC,0.0916
11,AACGCTCG,0.132
12,CCGTACAG,-0.0293
13,AAAATCGC,0.12
14,CGGGGAAC,0.0676
15,GGCCTACA,0.0721
16,GCCCACCC,0.119
17,CTGGGGTA,-0.12
18,CTGTTCGC,0.13
19,GTTACTAA,0.374
20,ATGGCCAT,0.252
21,AATCGCCT,0.106
22,ATACCGTA,-0.0149
23,CTTAGATA,0.169
24,GGGTCTAA,-0.0221
25,GTCGGGTA,0.0141

row,Sequence,PBM E-score
1,AAGGGCTA,-0.121
2,CGAGGATC,0.174
3,GGGTGACC,-0.0743
4,CCTGGGAG,-0.196
5,GCGATGCA,-0.252
6,GAAGATCA,0.00058
7,AACGTTAC,0.196
8,AACTATAC,-0.0398
9,GAGAGCCA,-0.228
10,CCGGGTTC,-0.0103
11,TATCCGAA,0.139
12,CCAGGCTC,-0.0443
13,GCCAGGTA,0.00087
14,AAGATCAC,0.0436
15,CGAACAGA,0.0274
16,ACCGACAT,0.0684
17,GTCGCGAA,0.0594
18,ACCAAACC,0.00963
19,CCGGCAAG,-0.0274
20,GTCTATGA,0.142
21,AAATATTG,0.249
22,AATGATTA,0.249
23,AAGGATCC,-0.073
24,CGTCTCGA,0.0733
25,GGCGACAC,0.0142

row,Sequence,PBM E-score
1,CACCGTTA,0.0887
2,AGGCTAAA,-0.0341
3,AAGGATGT,-0.11
4,GGCGGGTA,-0.0629
5,AGTTCATC,0.0446
6,CAAAACAA,-0.00589
7,AGGCGCTA,0.146
8,CCGCCCAC,-0.0884
9,CTTGCACC,-0.0284
10,ACGCACAG,0.0754
11,CACTCATG,-0.0327
12,GACATTCC,-0.0262
13,AATCGCAG,0.111
14,AATATCGG,0.183
15,GTTGCCAA,0.0425
16,CGGTCTGA,0.00188
17,AAGCAGCA,-0.13
18,ATTCTGGA,0.0362
19,CGAGGAAC,0.146
20,AGAAATGC,0.0228
21,ACTATTAA,0.123
22,ACGCGATA,0.156
23,CAGTTGGC,0.00206
24,GGCCATTA,0.139
25,CGTGTACC,-0.135

# Rewritten tab-delimited: entries from further up.
row	Sequence	PBM E-score
9	GAGAGCCA	-0.228
10	CCGGGTTC	-0.0103
11	TATCCGAA	0.139
13	GCCAGGTA	0.00087
14	AAGATCAC	0.0436
15	CGAACAGA	0.0274
16	ACCGACAT	0.0684
17	GTCGCGAA	0.0594
18	ACCAAACC	0.00963
19	CCGGCAAG	-0.0274
20	GTCTATGA	0.142
21	AAATATTG	0.249
22	AATGATTA	0.249
23	AAGGATCC	-0.073
24	CGTCTCGA	0.0733
25	GGCGACAC	0.0142
2	AGGCTAAA	-0.0341
3	AAGGATGT	-0.11
4	GGCGGGTA	-0.0629
5	AGTTCATC	0.0446
6	CAAAACAA	-0.00589
7	AGGCGCTA	0.146
8	CCGCCCAC	-0.0884
9	CTTGCACC	-0.0284
10	ACGCACAG	0.0754
11	CACTCATG	-0.0327
12	GACATTCC	-0.0262
13	AATCGCAG	0.111
14	AATATCGG	0.183
15	GTTGCCAA	0.0425
16	CGGTCTGA	0.00188
17	AAGCAGCA	-0.13
18	ATTCTGGA	0.0362
19	CGAGGAAC	0.146
20	AGAAATGC	0.0228
21	ACTATTAA	0.123
22	ACGCGATA	0.156
23	CAGTTGGC	0.00206
24	GGCCATTA	0.139
25	CGTGTACC	-0.135

# Following part.

row,Sequence,PBM E-score
1,CACATACG,-0.113
2,AATGGAGT,-0.0299
3,ACCTAGCT,-0.111
4,ATGTCCTG,0.158
5,AAAATCAT,0.0969
6,GACCACCA,-0.0541
7,ATTGGATG,-0.0526
8,AGGTCTTC,-0.211
9,GATCTTTA,-0.013
10,AAACCCGG,0.0562
11,GTGCCCCA,-0.152
12,AATTTCTA,0.184
13,CAGATAAA,0.0231
14,GGGCGATA,-0.196
15,TCAGACAA,0.13
16,AACTGGCA,0.0196
17,CCGCATGC,0.0682
18,CCCAGCAG,-0.0553
19,CGGTACCC,-0.205
20,AACAATGG,0.0149
21,GCGAATAC,-0.028
22,AACTCAAT,0.0311
23,CCAGGCCA,-0.0845
24,AATGTTCG,0.117
25,TAGACAAA,-0.0741

row,Sequence,PBM E-score
1,CTGCATAC,0.0671
2,ATACTTTA,0.0976
3,ATCTCTAG,-0.0232
4,CCGTCCCC,-0.263
5,AAACGACT,-0.0235
6,CTATCATA,0.148
7,CTGTTCAA,-0.00531
8,CACGCTTC,-0.213
9,CCCATTTC,-0.289
10,GTGCGCTA,0.0718
11,AAATAGCT,-0.0849
12,CAAAGGCA,0.0792
13,TCGTCCAA,0.0812
14,ATGGGAAT,-0.109
15,GCATGCCA,-0.0155
16,CAGCATCA,0.11
17,GCCATTTA,-0.165
18,TATTTTGA,0.15
19,ACTATACT,0.131
20,TTCCCCAA,-0.0816
21,CAAGTTAA,0.0668
22,ATACGGTG,0.0409
23,AACTACCT,0.0789
24,GCGCAACA,0.0472
25,CCGGTAAC,0.0491

row,Sequence,PBM E-score
1,ACGACGTA,0.0903
2,CTAAAGCC,-0.214
3,ATAAGTTG,0.0577
4,ACGATGCC,-0.129
5,ATCAACAA,0.208
6,GTACGTGA,0.0217
7,AGGAAGTG,0.0356
8,CCGACACC,-0.0919
9,ATGAAATG,-0.0426
10,GGCTGAAC,-0.0285
11,GCGTCTTA,-0.0584
12,AGGACGAG,-0.175
13,ACTCATAT,0.00371
14,AAAGTGGA,-0.101
15,CGCGCTTA,0.262
16,CATTTACA,0.0347
17,CTAGTTTA,0.0779
18,AATTGTGT,-0.0588
19,GAGAGGCC,-0.198
20,GGTTGATA,0.144
21,ACCCTCTG,-0.231
22,CTTTGCGA,-0.0508
23,AAGGCCTA,-0.0263
24,ACTTGACG,-0.0557
25,GCATGTTA,0.138

row,Sequence,PBM E-score
1,GAAAGGTC,-0.183
2,CGTGTTAG,0.168
3,AGGCCCCA,-0.194
4,CCAACCGA,0.113
5,CTAACGAG,0.0159
6,CCTGAACG,-0.0444
7,GATGCAGA,0.146
8,CGAGCGCC,0.0144
9,CCGGTTCG,-0.0989
10,CGAGGACC,-0.00988
11,AGCTGAGG,-0.0903
12,ACACACAA,0.103
13,ACAAAGGT,0.0912
14,ACAAACGT,0.0361
15,ACCCCTAA,-0.137
16,CGTCTGGA,-0.205
17,ACGAGCGT,0.0203
18,AGATGGGG,-0.216
19,AACTTAGA,0.0275
20,AGCCATGC,0.0201
21,AGCTTTAT,-0.0448
22,GACATTGA,0.0902
